# PubChem BioAssay AID1259259, Sanger Institute | 2017
# Purpose: 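Kinome siRNA search for kinases essential alone or combined with trametinib, cetuximab or BYL719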 (primary screen)
# Cell system: SW1463 human colorectal cancer cells
# Reagent: siRNA pool against human genes
# Conditions: DMSO vehicle, or one anchor drug: BYL719 at 1 µM, cetuximab at 5 µg/ml, or trametinib at 10 nM
# Read-out: 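Viability as fraction of control pool 2 (non-targeting), replicate mean; knock-down robust z-score without any drug; synergy score averaged for each anchor drug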
# Direction: robust z-score, knock-down alone: higher = more viable cells after knock-down; viability, knock-down alone: higher = more viable cells
# Hit rule: 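a robust z-score under -3 for knock-down with no drug marks the gene as essential, meaning viability loss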
# Meaning of the calls: active = essential: viability loss from knock-down alone; inactive = no change from knock-down alone
# The whole screen tested 794 reagents; below is a part drawn at random. Over the whole deposit, 9 (1.1%) got an active call. 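Calls rest on knock-down alone, not drug synergy; viability values seem capped at 1.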 Not all columns of the deposit are shown. Not given: the amount of reagent, the time to read-out.
gene,"robust z-score, knock-down alone","viability, knock-down alone (fraction of control)",call
LATS2,1.13,1,inactive
DAPK1,-1.63,0.823,inactive
HIPK2,1.13,1,inactive
CASP8,-0.149,0.918,inactive
KCNH8,1.09,0.998,inactive
KRAS,-1.75,0.815,inactive
CDK5R1,-0.000521,0.928,inactive
ITSN1,1.13,1,inactive
MAP2K2,-0.161,0.917,inactive
HK1,0.175,0.939,inactive
PRKCB,-0.256,0.911,inactive
TNK2,-0.239,0.912,inactive
CAMKK2,0.555,0.963,inactive
MAPK9,1.13,1,inactive
SRPK1,-0.266,0.911,inactive
DSTYK,0.58,0.965,inactive
GUK1,-0.368,0.904,inactive
CDK15,-2.03,0.797,inactive
PRKCH,-0.0404,0.925,inactive
PAK5,-1.03,0.861,inactive
LATS1,1.13,1,inactive
STK36,0.489,0.959,inactive
GK2,0.263,0.945,inactive
DTYMK,0.709,0.973,inactive
PIK3C2B,0.306,0.947,inactive
PINK1,0.396,0.953,inactive
FRK,0.845,0.982,inactive
RIOK2,0.911,0.986,inactive
EFNA4,1.13,1,inactive
DCLK2,1.13,1,inactive
RPS6KA4,-0.0969,0.921,inactive
ADCK2,-2.29,0.781,inactive
MYLK,-1.52,0.83,inactive
PFKFB4,1.11,0.999,inactive
ADPGK,-0.82,0.875,inactive
MECOM,-0.68,0.884,inactive
WEE1,-2.43,0.771,inactive
CDKN1B,-0.595,0.889,inactive
DGKD,-0.621,0.888,inactive
CALM3,-1.73,0.817,inactive
TBX3,0.756,0.976,inactive
PRKAA2,0.385,0.952,inactive
CPNE3,0.966,0.99,inactive
SMAD2,0.29,0.946,inactive
NUAK1,-2.2,0.786,inactive
IRAK4,1.13,1,inactive
FES,-1.18,0.852,inactive
CDK6,-0.938,0.867,inactive
PRKAR1B,0.0262,0.929,inactive
MAP3K11,-1.19,0.851,inactive

No new results follow: 5 of the entries above.
gene,"robust z-score, knock-down alone","viability, knock-down alone (fraction of control)",call
STK36,0.489,0.959,inactive
GK2,0.263,0.945,inactive
DTYMK,0.709,0.973,inactive
PIK3C2B,0.306,0.947,inactive
PINK1,0.396,0.953,inactive
